The target of this experiment is HERC2 (E3 ubiquitin ligase) (mouse (endogenous in BV-2)) (UniProt Q4U2R1). The experiment in a line: co-IP; supernatant of BV-2 cell lysate (RIPA lysis buffer with protease inhibitors); anti-HERC2 antibody and protein A agarose beads overnight at 4 °C; washed 3 times with lysis buffer; NLRC4 detected by Western blotting. (In general: A western blot detects proteins with antibodies after separation by electrophoresis.)

Amino acid sequences for entries named in this document (tags omitted).
UniProt Q4U2R1: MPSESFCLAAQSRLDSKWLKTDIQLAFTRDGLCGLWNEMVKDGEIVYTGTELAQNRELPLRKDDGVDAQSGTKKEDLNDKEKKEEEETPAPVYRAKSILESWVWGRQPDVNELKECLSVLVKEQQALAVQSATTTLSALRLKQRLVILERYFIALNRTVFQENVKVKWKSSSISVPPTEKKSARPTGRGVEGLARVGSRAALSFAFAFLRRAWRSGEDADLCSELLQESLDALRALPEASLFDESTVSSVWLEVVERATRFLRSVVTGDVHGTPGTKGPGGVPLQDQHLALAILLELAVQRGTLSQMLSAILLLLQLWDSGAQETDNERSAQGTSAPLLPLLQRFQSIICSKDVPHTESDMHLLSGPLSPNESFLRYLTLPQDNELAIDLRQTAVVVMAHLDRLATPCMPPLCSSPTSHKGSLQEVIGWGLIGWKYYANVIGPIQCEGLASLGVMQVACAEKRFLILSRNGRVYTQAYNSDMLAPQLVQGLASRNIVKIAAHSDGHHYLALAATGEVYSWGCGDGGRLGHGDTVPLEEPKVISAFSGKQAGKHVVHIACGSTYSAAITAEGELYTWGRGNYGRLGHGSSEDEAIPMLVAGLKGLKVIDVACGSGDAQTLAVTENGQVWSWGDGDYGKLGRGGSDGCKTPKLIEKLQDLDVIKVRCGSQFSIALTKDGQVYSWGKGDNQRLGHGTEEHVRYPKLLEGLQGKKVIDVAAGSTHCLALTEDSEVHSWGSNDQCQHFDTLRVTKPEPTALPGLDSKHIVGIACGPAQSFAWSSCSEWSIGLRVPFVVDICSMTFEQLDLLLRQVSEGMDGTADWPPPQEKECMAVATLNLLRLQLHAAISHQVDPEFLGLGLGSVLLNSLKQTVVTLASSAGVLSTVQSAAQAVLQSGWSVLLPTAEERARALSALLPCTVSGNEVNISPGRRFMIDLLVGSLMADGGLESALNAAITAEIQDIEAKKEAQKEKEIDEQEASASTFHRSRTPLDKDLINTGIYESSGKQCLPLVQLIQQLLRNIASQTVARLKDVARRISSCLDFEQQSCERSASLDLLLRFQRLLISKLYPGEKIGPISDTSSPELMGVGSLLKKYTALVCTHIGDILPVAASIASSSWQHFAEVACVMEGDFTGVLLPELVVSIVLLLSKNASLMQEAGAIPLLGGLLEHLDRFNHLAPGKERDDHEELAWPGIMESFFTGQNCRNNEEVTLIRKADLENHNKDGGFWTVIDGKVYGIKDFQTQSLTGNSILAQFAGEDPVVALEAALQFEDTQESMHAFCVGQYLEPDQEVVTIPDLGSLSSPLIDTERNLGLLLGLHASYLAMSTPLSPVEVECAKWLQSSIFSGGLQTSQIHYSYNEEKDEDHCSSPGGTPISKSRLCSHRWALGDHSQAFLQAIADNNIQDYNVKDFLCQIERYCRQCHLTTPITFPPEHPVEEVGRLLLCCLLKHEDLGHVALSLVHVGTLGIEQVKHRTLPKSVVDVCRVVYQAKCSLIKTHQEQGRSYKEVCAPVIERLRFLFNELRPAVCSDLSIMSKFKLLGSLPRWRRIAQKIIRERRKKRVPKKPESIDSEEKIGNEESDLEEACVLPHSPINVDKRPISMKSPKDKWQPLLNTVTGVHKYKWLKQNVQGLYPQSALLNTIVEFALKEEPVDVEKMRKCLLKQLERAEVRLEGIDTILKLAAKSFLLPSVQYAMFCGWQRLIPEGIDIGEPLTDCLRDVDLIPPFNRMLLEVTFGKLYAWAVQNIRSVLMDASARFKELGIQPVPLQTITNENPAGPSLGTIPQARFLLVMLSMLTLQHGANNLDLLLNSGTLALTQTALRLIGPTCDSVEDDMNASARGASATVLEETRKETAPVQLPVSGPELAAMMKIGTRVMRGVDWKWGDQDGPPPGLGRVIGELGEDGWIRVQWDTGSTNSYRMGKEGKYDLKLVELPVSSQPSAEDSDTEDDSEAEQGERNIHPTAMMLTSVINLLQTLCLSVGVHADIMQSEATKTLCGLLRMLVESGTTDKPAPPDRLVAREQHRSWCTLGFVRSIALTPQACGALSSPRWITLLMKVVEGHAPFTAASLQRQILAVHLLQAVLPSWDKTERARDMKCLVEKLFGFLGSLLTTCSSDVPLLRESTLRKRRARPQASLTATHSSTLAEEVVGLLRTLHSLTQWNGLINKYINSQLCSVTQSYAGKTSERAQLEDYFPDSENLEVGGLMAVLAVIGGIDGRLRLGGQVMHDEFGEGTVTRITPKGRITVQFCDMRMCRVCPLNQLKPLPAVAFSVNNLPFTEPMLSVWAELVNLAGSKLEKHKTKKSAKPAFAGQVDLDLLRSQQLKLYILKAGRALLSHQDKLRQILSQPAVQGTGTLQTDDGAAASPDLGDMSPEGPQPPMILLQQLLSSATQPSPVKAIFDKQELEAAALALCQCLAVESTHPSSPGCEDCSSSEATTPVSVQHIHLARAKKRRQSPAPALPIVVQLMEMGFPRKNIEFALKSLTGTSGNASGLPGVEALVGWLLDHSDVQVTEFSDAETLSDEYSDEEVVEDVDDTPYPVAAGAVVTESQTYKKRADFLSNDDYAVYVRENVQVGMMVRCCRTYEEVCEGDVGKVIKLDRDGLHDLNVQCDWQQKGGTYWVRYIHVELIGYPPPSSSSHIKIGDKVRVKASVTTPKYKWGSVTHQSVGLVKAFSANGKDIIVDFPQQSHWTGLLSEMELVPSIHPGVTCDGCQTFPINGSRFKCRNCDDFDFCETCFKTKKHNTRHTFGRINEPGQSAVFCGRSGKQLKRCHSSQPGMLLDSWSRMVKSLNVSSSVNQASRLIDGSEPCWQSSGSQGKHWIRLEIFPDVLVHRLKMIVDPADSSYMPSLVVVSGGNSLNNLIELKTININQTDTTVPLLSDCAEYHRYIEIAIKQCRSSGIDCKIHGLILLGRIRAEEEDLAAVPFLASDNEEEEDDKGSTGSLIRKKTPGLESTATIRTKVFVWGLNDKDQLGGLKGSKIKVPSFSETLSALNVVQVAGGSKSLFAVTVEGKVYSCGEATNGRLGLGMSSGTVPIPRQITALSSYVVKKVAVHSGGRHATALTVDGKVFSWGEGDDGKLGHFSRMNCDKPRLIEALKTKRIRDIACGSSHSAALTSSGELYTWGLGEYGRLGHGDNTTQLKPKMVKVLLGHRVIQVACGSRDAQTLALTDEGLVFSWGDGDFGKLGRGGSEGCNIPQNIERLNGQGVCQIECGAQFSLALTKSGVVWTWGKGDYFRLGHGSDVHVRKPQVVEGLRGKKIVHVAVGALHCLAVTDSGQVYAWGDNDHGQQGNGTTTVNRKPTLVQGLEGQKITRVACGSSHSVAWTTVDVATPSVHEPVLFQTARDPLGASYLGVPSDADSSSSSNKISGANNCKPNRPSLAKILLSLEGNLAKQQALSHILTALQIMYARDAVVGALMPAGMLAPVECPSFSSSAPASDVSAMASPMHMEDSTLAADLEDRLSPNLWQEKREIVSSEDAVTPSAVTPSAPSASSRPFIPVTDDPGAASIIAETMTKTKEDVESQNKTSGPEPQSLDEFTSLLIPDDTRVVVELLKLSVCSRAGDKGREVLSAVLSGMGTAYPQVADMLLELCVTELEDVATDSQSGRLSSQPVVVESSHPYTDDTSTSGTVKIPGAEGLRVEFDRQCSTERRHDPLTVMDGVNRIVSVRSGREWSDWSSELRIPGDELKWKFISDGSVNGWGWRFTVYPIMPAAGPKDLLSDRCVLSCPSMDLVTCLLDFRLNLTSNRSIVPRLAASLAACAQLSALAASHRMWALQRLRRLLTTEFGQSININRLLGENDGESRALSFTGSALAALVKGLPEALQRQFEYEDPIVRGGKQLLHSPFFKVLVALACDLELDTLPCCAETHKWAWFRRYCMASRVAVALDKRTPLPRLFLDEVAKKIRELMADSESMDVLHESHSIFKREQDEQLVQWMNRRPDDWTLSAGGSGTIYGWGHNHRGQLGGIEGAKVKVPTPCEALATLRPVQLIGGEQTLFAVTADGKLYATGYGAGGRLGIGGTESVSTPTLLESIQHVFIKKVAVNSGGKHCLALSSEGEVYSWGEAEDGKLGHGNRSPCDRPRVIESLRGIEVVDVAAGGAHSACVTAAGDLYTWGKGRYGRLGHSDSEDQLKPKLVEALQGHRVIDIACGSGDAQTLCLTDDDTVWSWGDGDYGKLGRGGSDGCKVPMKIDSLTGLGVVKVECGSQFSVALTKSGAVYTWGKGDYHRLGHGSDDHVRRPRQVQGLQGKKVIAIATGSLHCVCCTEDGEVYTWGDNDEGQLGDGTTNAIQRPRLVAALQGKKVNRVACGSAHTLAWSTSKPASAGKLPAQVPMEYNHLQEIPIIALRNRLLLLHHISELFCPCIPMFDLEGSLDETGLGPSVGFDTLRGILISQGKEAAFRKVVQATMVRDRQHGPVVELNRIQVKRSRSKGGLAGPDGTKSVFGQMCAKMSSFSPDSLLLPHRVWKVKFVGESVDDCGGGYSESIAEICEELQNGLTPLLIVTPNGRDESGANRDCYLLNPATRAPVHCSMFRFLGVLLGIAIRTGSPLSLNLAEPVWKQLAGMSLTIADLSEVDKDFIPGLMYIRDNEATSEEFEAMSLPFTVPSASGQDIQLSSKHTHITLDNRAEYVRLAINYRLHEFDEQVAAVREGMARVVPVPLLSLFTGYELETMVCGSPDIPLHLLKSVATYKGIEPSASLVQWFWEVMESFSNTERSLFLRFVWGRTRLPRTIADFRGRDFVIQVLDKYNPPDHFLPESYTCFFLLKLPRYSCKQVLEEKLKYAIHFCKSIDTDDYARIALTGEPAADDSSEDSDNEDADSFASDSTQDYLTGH
UniProt Q3UP24: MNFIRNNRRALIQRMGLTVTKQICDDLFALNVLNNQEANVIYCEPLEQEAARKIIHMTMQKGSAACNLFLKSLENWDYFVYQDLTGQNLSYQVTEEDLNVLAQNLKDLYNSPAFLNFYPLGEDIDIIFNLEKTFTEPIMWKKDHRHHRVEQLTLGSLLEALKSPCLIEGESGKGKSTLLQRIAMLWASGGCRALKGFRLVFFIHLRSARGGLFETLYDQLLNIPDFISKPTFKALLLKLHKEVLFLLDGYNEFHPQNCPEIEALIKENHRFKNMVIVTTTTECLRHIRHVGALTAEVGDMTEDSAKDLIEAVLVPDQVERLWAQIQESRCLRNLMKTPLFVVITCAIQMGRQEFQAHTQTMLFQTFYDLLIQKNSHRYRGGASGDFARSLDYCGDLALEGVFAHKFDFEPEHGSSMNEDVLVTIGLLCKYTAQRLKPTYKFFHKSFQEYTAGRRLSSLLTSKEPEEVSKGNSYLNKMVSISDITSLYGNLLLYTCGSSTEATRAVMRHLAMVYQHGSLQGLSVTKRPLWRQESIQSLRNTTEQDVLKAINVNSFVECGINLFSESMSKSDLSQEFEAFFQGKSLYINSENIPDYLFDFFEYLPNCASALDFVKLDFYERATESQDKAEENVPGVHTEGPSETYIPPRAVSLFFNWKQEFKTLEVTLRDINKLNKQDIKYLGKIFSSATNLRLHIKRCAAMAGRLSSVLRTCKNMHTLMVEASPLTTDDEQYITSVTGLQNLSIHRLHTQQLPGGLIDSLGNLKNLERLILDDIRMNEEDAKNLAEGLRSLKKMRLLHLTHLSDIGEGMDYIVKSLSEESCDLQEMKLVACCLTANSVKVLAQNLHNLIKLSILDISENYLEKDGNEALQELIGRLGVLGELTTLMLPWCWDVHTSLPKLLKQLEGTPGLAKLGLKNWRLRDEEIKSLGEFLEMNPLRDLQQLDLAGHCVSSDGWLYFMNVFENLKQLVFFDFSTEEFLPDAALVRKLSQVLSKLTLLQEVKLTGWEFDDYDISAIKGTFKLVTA

No constants are given. Whether binding was seen depends on the method and setting. In cells and extracts the contact can be indirect. Some binding calls cover weakened binding; strength is not graded here.

On to “NLR-family CARD-containing protein 4 (NLRC4) (from UniProt Q3UP24 1-1024)”, for which the binding result is listed as “binds”.

Source of the values: publication PMC8048261.
